No constants are given. Whether binding was seen depends on the method and setting. Binding seen in cells or lysates may run through a third protein. A result given as binding can be weak or reduced; the word gives no strength.
Key:
Assay in all cases: co-IP; endogenous proteins; 10 mg total porcine adipocyte lysate with 4 µg antibody overnight, captured on goat anti-rabbit or anti-mouse IgG magnetic beads for 4 h; washed 4 times with lysis buffer; Western blot; Akt2 with Sirt1 over the days of differentiation, the other pairs at day 8 after induction
[1] = target: Akt2 (endogenous, porcine adipocytes) (pig (endogenous in porcine adipocytes)) (UniProt G9BWQ2)
[2] = target: GSK3β (endogenous, porcine adipocytes) (pig (endogenous in porcine adipocytes))
[3] = target: PI3K (endogenous, porcine adipocytes) (pig (endogenous in porcine adipocytes))

Chains of the proteins cited; added tags and fusions are not shown. Lines headed by an entry give the natural chain unless they say otherwise; changes in a name come on top.
UniProt G9BWQ2: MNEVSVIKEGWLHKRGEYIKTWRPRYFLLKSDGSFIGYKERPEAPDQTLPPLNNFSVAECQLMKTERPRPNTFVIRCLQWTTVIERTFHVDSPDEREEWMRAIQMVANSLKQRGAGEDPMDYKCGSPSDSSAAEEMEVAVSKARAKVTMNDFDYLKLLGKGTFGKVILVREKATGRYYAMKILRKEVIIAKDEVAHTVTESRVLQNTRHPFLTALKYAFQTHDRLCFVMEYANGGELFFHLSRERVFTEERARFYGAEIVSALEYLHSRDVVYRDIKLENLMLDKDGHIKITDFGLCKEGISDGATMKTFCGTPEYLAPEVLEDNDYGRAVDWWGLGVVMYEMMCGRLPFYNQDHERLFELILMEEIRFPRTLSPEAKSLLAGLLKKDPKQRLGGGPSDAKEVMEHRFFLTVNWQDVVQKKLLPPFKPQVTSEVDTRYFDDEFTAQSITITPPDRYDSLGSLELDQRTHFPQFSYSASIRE

Measured: binding

B1: Sirt1 (endogenous, porcine adipocytes) (protein, UniProt A7LKB1 1-742)
chain: MADEAALALQPGGSPSAVAAEREAPSPPAGEPLRKKPRRDGPGVGRSPGEPGGAALERELPAAAGGCPAAAVLWRETAAGGEREAQAAAAAGEGNNGPGLQGLSREAPPADDFYDDDDDDEGEEEEEAAAAAAIGYRDNLLFGDEIVTNGFHSCESDEDDRASHASSSDWTPRPRIGPYTFVQQHLMIGTDPRTILKDLLPETIPPPELDDMTLWQIVINILSEPPKRKKRKDINTIEDAVKLLQECKKIIVLTGAGVSVSCGIPDFRSRDGIYARLAVDFPDLPDPQAMFDIEYFRKDPRPFFKFAKEIYPGQFQPSLCHKFIALSDKEGKLLRNYTQNIDTLEQVAGIQRIIQCHGSFATASCLICKYKVDCEAVRGDIFNQVVPRCPRCPADEPLAIMKPEIVFFGENLPEQFHRAMKYDKDEVDLLIVIGSSLKVRPVALIPSSIPHEVPQILINREPLPHLHFDVELLGDCDVIINELCHRLGGEYAKLCCNPVKLSEITEKPPRTQKELAHLSELPPTPLNISEGSSSPERTSPPASSVTLPLLDQATKSNVDDLDVSESKDCVEEKSQEVQTSRSIESVKEPMESPGLKNVACSNGEKNERTSVAETVRKCWPARLAKEQISKRLDGNQYLFLPPNRYIFHGAEVYSDSEDDVLSSSSCGSNSESGTCQSPSLEEPMEDESEIEEFYNGLEDDADVNMRAGGTGFGADGSDQEAVNEAISMKQEATGVNYPSNKS
binds: all assays above

Reference: article PMC3741135
